{
  "sequences": {"note": "The chains behind the UniProt entries cited, without tags or fusion partners. Residues count along the entry.", "UniProt Q6UVK1, residues 30-2322": "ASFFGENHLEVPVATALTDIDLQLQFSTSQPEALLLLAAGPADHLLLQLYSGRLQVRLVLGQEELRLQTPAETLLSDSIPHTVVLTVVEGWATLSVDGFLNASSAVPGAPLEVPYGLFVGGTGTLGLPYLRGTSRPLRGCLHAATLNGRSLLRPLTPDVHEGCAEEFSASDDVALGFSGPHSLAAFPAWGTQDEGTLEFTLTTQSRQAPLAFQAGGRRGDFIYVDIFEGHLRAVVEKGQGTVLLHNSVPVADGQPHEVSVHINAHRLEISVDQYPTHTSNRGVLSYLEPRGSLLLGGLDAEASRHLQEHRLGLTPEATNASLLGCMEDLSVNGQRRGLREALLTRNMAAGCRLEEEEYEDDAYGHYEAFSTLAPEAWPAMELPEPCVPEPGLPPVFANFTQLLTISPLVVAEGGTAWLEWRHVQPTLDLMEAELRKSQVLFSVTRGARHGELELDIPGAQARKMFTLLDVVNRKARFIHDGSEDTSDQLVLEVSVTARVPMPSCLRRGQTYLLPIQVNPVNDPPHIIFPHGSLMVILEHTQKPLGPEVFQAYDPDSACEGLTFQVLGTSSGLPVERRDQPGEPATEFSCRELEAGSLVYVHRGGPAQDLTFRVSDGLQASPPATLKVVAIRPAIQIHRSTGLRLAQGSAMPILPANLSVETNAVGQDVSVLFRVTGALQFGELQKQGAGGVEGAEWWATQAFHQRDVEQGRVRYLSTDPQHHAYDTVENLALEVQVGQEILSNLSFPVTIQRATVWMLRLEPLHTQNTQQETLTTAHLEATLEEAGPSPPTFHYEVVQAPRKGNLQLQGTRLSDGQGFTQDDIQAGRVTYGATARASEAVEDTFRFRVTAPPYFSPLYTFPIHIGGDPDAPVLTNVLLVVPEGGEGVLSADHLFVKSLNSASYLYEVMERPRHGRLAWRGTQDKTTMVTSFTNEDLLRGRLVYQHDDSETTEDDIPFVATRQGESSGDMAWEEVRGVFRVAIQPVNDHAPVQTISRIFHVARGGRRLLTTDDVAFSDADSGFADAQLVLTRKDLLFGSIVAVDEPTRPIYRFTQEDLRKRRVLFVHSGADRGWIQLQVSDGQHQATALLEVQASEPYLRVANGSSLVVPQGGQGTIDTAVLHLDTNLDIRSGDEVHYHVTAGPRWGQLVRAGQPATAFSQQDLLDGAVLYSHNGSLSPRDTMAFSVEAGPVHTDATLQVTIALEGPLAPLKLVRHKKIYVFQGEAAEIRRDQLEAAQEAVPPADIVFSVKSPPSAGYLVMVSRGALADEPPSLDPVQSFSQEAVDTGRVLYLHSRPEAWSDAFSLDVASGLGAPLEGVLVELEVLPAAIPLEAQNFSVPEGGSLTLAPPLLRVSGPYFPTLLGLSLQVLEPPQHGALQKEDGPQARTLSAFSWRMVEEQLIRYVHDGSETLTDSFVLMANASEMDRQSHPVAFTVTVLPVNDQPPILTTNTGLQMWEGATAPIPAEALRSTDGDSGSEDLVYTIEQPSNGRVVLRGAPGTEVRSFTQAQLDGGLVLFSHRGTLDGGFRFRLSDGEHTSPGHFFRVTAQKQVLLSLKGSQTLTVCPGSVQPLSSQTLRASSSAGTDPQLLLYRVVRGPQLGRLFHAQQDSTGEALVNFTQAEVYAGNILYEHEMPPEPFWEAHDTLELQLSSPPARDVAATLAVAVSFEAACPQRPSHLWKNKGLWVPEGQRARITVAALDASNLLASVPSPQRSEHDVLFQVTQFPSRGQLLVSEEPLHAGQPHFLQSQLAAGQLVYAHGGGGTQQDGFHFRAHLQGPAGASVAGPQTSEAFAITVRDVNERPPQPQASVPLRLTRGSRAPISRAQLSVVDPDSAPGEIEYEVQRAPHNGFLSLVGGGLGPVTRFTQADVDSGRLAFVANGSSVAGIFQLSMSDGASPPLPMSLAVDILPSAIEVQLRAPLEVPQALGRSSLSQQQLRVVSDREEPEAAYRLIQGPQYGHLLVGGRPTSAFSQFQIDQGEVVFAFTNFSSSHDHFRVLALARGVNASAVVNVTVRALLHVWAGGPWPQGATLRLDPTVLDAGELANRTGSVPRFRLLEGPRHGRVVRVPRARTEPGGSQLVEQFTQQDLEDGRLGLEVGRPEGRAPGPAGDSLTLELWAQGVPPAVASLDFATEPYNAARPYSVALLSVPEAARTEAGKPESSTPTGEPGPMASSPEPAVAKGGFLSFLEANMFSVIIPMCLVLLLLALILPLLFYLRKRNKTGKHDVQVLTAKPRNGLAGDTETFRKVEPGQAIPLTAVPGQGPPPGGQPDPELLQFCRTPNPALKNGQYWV"},
  "source": "patent US20140242080A1",
  "binders": {"B1": {"name": "reference anti-human MCSP IgG (antibody, V domains shown)", "VH": "EVQLQESGPGLVKPSQSLSLTCSVTGYSITSGYYWNWIRQFPGNKLEWMGYITYDGSNNYNPSLKNRISITRDTSKNQFFLKLNSVTTEDTATYYCADFDYWGQGTTLTVSS", "VL": "DIVLTQSPSSLSASLGDRVTISCSASQGIRNYLNWYQQRPDGTVKLLIYYTSSLHSGVPSRFSGSGSGTDYSLTISNLEPEDIATYYCQQYSKLPWTFGGGTKLEIK"}},
  "key": {"[1]": {"target": "human MCSP expressed on tumor cells (Colo-38, WM266-4, A375, MV-3, HCT-116) (human) (UniProt Q6UVK1)", "assay": "flow cytometry on Colo-38 cells"}, "[2]": {"target": "human MCSP expressed on tumor cells (Colo-38, WM266-4, A375, MV-3, HCT-116) (human) (UniProt Q6UVK1)", "assay": "flow cytometry on Colo-38 cells, dose-dependent"}},
  "note": "These are yes or no findings as the source states them, for the method shown. Some results given as binding are weak or reduced against the parent protein; the word gives no strength.",
  "data": [
    {"binder": "B1", "values": [
      {"measurement": "binding", "setting": "[1]", "result": "binds"},
      {"measurement": "binding", "setting": "[2]", "result": "binds"}
    ]}
  ]
}
